Data from PubChem BioAssay AID2685 (National Center for Advancing Translational Sciences (NCATS), 2010).
Hit rate of the full screen: of about 320,000 compounds, about 2,100 (0.66%) were called active. This list was built around the results that the source calls inconclusive (neither active nor inactive); the mix of calls is not that of the screen. Calls follow the shape of the dose curve; as a rule, active = well fitted inhibition curve with a large enough effect in the signal ratio, with a control signal flat (not every such curve was filed as active); inconclusive = small, poorly fitted or top-dose-only effect, or effect the other way, or a change in a side signal; inactive = flat fitted curve, though single readings scatter; the % refers to the signal ratio. Where the call is inconclusive, the potency comes from a doubtful curve fit.

Assay: qHTS Assay for Lipid Storage Modulators in Drosophila S3 Cells
Settings: BODIPY lipid droplet fluorescence, 18-24 h, cells fed with added oleic acid; lipid storage change, negative = inhibition: at 46.1 µM (top of the series) unless noted
How it was run: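 Drosophila S3 cells loaded with oleic acid (400 uM, as added) and compounds at several concentrations; lipid droplets imaged by 488-nm laser-scanning cytometry, 500–530 nm intensity and object ratio to cell channel. Percent activity normalized to 20 uM Triacsin C.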
% is scaled to controls: 0 for no effect and ±100 for the full control effect; potency is read from the fitted curve at half-maximal effect.

Row | Compound | Potency | lipid storage change, negative = inhibition
1 | Cc1ccc(C(=O)N2CCN(c3ccccn3)CC2)cc1Cl | inconclusive: 0.651 µM [falling, partial curve, poor fit] | –
2 | COc1ccc(Br)cc1/C=N/NC(=O)CN1CCCCC1 | – | inconclusive: -10.6%
3 | O=C(O)/C=C/C(=O)N1CCN(c2ccccc2F)CC1 | – | inconclusive: -12.1%
4 | COc1nc(N)nc(N2CCOCC2)n1 | – | inconclusive: -23.3%
5 | COc1ccc(OC)c(C(C)NC(=O)c2ccco2)c1 (stereo unspecified) | – | inconclusive: -5.31%
6 | C=CCNC(=O)C1CC(=O)N(c2ccc(OCC(=O)Nc3ccc(CC)cc3)cc2)C1 (stereo unspecified) | – | inconclusive: -35.8%
7 | CC1=C(C(=O)OC(C)C)C(c2ccc3c(c2)OCO3)NC(=O)N1 (stereo unspecified) | inconclusive: 29.1 µM [falling, single point] | –
8 | Cc1cc(=O)[nH]c(SCC(=O)Nc2ccc(S(N)(=O)=O)cc2)n1 | inconclusive: 6.51 µM [falling, single point] | –
9 | CCN1CCN(C(=O)CCc2nnc(CCc3ccc(OC)cc3)o2)[C@@H](C)C1=O | inconclusive: 23.1 µM [activator, single point] | –
10 | CCOC(=O)c1c(C)oc2ccc(NS(=O)(=O)c3ccc(C(=O)O)cc3)cc12 | – | inconclusive: -3.6%
11 | COc1ccc(S(N)(=O)=O)cc1-c1nnc2c3ccccc3c(C)nn12 | – | inactive
12 | CC(=O)c1ccc(N=Nc2ccc(N(C)C)cc2)cc1 | – | inconclusive: 32.6%
13 | Cc1ccc2c(CC(=O)N3CCN(S(=O)(=O)c4ccccc4)CC3)coc2c1 | – | inconclusive
14 | COCCN(CCOC)S(=O)(=O)c1ccc(C(=O)Nc2nnc(C)o2)cc1 | – | inconclusive: 0.171%
15 | Fc1ccc(NC(=S)NCc2cccs2)cc1 | – | inconclusive: 15.5%
16 | COc1ccc(OCCSc2ccc(S(=O)(=O)N3CCCC3)cn2)cc1 | – | inconclusive: -24.7%
17 | COc1ccccc1OC(C)C(=O)Nc1ccccc1C(=O)NCc1cccnc1 (stereo unspecified) | – | inconclusive: 37.8%
18 | O=C(NCc1ccc(F)cc1)C(=O)NCC1OCCN1C(=O)c1ccc(Cl)cc1 (stereo unspecified) | – | inconclusive: 1.94%
19 | COc1cccc(C(=O)NCCS(=O)(=O)NCc2cccnc2)c1 | – | inconclusive: 21.3%
20 | O=C(CSc1nc(C(F)(F)F)cc(=O)[nH]1)Nc1nccs1 | – | inconclusive: 20.2% [at 0.0737 µM]
21 | Cc1ccc(S(=O)(=O)Nc2cccc(C(=O)NCC(c3ccco3)N(C)C)c2)cc1F (stereo unspecified) | – | inconclusive
22 | CC1CCCCN1CCCNC(=O)c1c(O)nc2ccccn2c1=O (stereo unspecified) | – | inconclusive: 85.1%
23 | CC(c1ccccc1)C(CC(=O)O)C(=O)Nc1ccc(Cl)c(Cl)c1 (stereo unspecified) | – | inconclusive: -3.18%
24 | O=C(Nc1cccc(-c2nc3cccnc3s2)c1)c1ccc(Cl)nc1 | – | inconclusive: 19.1%
25 | COc1cc(C(=O)OCCCN=C2NS(=O)(=O)c3ccccc32)cc(OC)c1OC | – | inconclusive: -6.92%
26 | Cc1cc(C)c2nc(-c3ccco3)cc(C(=O)O)c2c1 | – | inconclusive: 18.2%

An excerpt from above in order of number of heavy atoms, descending:
Row | Compound | Potency | lipid storage change, negative = inhibition
9 | CCN1CCN(C(=O)CCc2nnc(CCc3ccc(OC)cc3)o2)[C@@H](C)C1=O | inconclusive: 23.1 µM [activator, single point] | –
8 | Cc1cc(=O)[nH]c(SCC(=O)Nc2ccc(S(N)(=O)=O)cc2)n1 | inconclusive: 6.51 µM [falling, single point] | –
4 | COc1nc(N)nc(N2CCOCC2)n1 | – | inconclusive: -23.3%

(next part)

Row | Compound | Potency | lipid storage change, negative = inhibition
27 | O=S(=O)(NCCSc1ccccn1)c1ccc(Cl)cc1 | – | inconclusive: -1.27%
28 | O=c1[nH]c(SCc2nc3ccccc3c(=O)n2-c2ccccc2C(F)(F)F)nc2ccccc12 | – | inconclusive: -9.74%
29 | O=C(CSc1nnc(-c2ccncc2)n1-c1ccccc1)Nc1ccc(C(=O)O)cc1 | – | inactive
30 | Cc1ccc(C)c(N2CCN(C(=O)CCS(=O)(=O)c3cccc4nonc34)CC2)c1 | inconclusive: 2.31 µM [activator, partial curve] | –
31 | Cc1ccc(NS(=O)(=O)c2cccc(C(=O)N3CCCC(C)C3)c2)cc1 (stereo unspecified) | – | inconclusive: 0.0206%
32 | CC(C)(C)NC(=O)C1CC(=O)OC1(C)C (stereo unspecified) | – | inconclusive: -72.4%
33 | O=C(O)COC(=O)Cc1ccccc1Nc1c(Cl)cccc1Cl | – | inconclusive: 15.8%
34 | CCOC(=O)c1c(C)[nH]c(NC(=O)NNC(=O)c2ccccc2Cl)c1C | inconclusive: 3.66 µM [activator, full curve] | –
35 | O=c1c2c(nc3nc(NCc4cccc5ccccc45)[nH]n13)CCC2 | – | inconclusive: -12.9%
36 | CC(C)OC(=O)c1nnc(Cc2ccc(F)cc2)o1 | – | inconclusive: -33.2%
37 | Cc1ccc(S(=O)(=O)N2CCN(C(=O)COC(=O)CSc3ccc(C)c(C)c3)CC2)c(C)c1 | – | inconclusive
38 | O=C(O)CSc1ncnc2nc[nH]c12 | active: 20.6 µM | –
39 | Cc1cc(C)c(NC(=O)CN2CCN3CCCC3C2)c(C)c1 (stereo unspecified) | – | inconclusive: -30.7%
40 | COC(=O)CNC(=O)c1cc(-c2ccncc2)nc2ccccc12 | inconclusive: 0.58 µM [activator, single point] | –
41 | Cc1ccc(-c2cc(C(=O)NCc3ccccn3)c3ccccc3n2)cc1 | inconclusive: 4.61 µM [rising, single point] | –
42 | COc1ccccc1CCNC(=O)CCn1c(=O)c2cccn2c2ccc(F)cc21 | inconclusive: 6.51 µM [activator, single point] | –
43 | C=CCNC(=O)c1ccc(Cn2cc(C(F)(F)F)ccc2=O)cc1 | – | inconclusive: 4.53%
44 | Cc1c(C)c2ccc(OCC(=O)NCc3ccccn3)cc2oc1=O | inconclusive: 7.31 µM [falling, partial curve] | –
45 | O=C(OCc1ccc(COC(=O)c2ccc(O)cc2)cc1)c1ccc(O)cc1 | – | inconclusive: -22.3%
46 | C/C(=N\NC(=O)c1ccco1)c1cc2ccccc2o1 | inconclusive: 2.06 µM [falling, single point] | –
47 | COc1ccc(C2N3CC4(C)CN2CC(C)(C3)C4=O)cc1OC (stereo unspecified) | – | inconclusive: -6.62%
48 | CC(=O)C1=C(O)C(=O)N(C)C1c1ccccc1F (stereo unspecified) | – | inconclusive: -14.9%
49 | O=c1[nH]c(NNC(=S)NCc2ccccc2)nc2c1C1(CCCCC1)Cc1ccccc1-2 | inconclusive: 29.1 µM [falling, single point] | –
50 | CCOC(=O)c1sc2cc([N+](=O)[O-])cc(SCC(=O)OC)c2c1N | inconclusive: 6.51 µM [activator, single point] | –
51 | O=C(NC1CCCC1)c1cc2nc(-c3ccccc3)cc(-c3ccccc3)n2n1 | – | inconclusive: 31.5%
